{"source": "patent US20090263341A1", "about": "“SOFT ANTICHOLINERGIC ESTERS” (priority 2005, published 2009)", "system": "guinea pig tracheal rings", "experiment": "Guinea pig trachea assay, pA2 against carbachol (Schild plot)", "procedure": "Changes in isometric tension were measured by a force displacement transducer (Experimetria, Budapest, Hungary) coupled to a Watanabe recorder. Cumulative concentration-effect curves were constructed to carbachol in the absence or presence of the antagonists. In each animal two preparations were used as time control (i.e., repeated carbachol curves in the absence of any antagonist) the remaining two preparations were used to test responses in the presence of two different concentrations of the antagonist.\nAntagonists were added to the organ bath 30 min prior to commencement of the agonist concentration versus effect curves. Schild plots were constructed for the antagonists against carbachol and pA2 values as well as slope estimates were obtained.\nResponses were measured as changes in isometric tension and calculated as a percentage of the maximum response attained in the initial concentration-response curve. Determination of antagonist potencies was done by constructing Schild double logarithmic plot of log (DR-1) versus −log M concentrations of the antagonist, and the slope of the plot was computed. […] Statistical significance was assessed by ANOVA followed by Dunnett test.", "note": "Like-named read-outs stand apart in the source and are kept apart here. Marks after values point to notes of the source that are not given here.", "data": [{"molecule": "C[N+]1(C)CCC(OC(=O)C(O)(c2ccccc2)C2CCCC2)C1.[Br-]", "note": "(mixture of isomers) [glycopyrrolate, 3-(2-cyclopentyl-2-phenyl-2-hydroxyacetoxy)-1,1-dimethylpyrrolidinium bromide, reference compound]", "values": [{"measurement": "Schild slope ± S.E., Trachea", "result": "1.53 ± 0.07^a"}]}, {"molecule": "CCOC(=O)C[N@+]1(C)CC[C@@H](OC(=O)[C@](O)(c2ccccc2)C2CCCC2)C1", "note": "[Compound (m), (2R,1′R,3′R) 3-(2-cyclopentyl-2-phenyl-2-hydroxyacetoxy)-1-(ethoxycarbonylmethyl)-1-methylpyrrolidinium bromide]", "values": [{"measurement": "Schild slope ± S.E., Trachea", "setting": "against carbachol", "result": "1.54 ± 0.18^a"}]}, {"molecule": "CCOC(=O)C[N+]1(C)[C@@H]2C[C@@H](OC(=O)C(O)(c3cccs3)c3cccs3)C[C@H]1[C@@H]1O[C@@H]12", "note": "(stereo partly drawn) [Compound (w), 6β,7β-epoxy-3,8-hydroxy-8-ethoxycarbonylmethyl-8-methyl-1αH,5αH-tropaniun bromide, di-2-thienylglycolate]", "values": [{"measurement": "Schild slope ± S.E., Trachea", "result": "1.03 ± 0.08^a"}]}, {"molecule": "CC(C)[N+]1(C)[C@@H]2CC[C@H]1CC(OC(=O)C(CO)c1ccccc1)C2.[Br-]", "note": "(stereo partly shown) [Ipratropium Br, ipratropium bromide]", "values": [{"measurement": "Schild slope ± S.E., Trachea", "result": "1.11 ± 0.14^a"}]}]}
